In the supplement of paper PMC5407854, “Inhibitor of ppGalNAc-T3-mediated O-glycosylation blocks cancer cell invasiveness and lowers FGF23 levels” (eLife, 2017):
The other results are listed elsewhere or left out. Most values lie at the level of the controls, where differences are scatter.

Test system: ppGalNAc-T3 sensor
Assay: T3 sensor activation Q score (MG/GFP ratio z-score vs DMSO controls) (SD units); higher = more sensor activation (inhibition of ppGalNAc-T3 glycosylation)
Conditions: HEK293 sensor cells; 10 µM; 6 h
Experimental: (§1)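 Cells were treated with compound at 10 uM for 6 h, then MG/GFP ratio was read by flow cytometry (10,000 cells per well, duplicate wells). Q = (R - R_neg)/SD_neg relative to DMSO vehicle controls; the signal rises when the glycosyltransferase is inhibited.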

| SMILES | T3 sensor activation Q score |
| --- | --- |
| CCCN(CCO)Cc1cccc(Cl)c1 | 0.095 |
| CN1C(=O)CC(N2CCN(c3ccc(Cl)cc3)CC2)C1=O (stereo not given) | -0.11 |
| CCCCc1ccc(-c2csc(N)c2C(N)=O)cc1 | 1.39 |
| COc1ccccc1N1CCN(C(=O)c2ccc(F)cc2)CC1 | -0.53 |
| COc1cccc(N2C(=O)CC(N3CCN(C)CC3)C2=O)c1 (stereo not given) | -0.025 |
| COc1ccc(S(=O)(=O)/C=C/c2ccccc2)cc1 | 0.195 |
| COc1ccc(NC(=O)C2CCCCC2C(=O)O)cc1 (stereo not given) | 0.27 |
| CC(=O)Nc1ccc(NC(=O)CCN2C(=O)c3ccccc3C2=O)cc1 | 0.065 |
| O=C(O)c1ccccc1C(=O)c1ccc(Cl)c(Cl)c1 | -0.48 |
| Cc1ccccc1NCC(=O)Nc1c(C)cccc1C | -0.335 |
| Cc1cccc(N(CC(=O)O)CC(=O)O)c1 | 1.18 |
| O=c1c2ccccc2nc2n1CCS2 | 0.795 |
| COc1ccc(Cl)cc1NC(=O)c1cccc(C)c1 | -0.04 |
| O=[N+]([O-])c1ccc(-c2cn3cc(Br)ccc3n2)cc1 | 0.345 |
| CCN1CCN(Cc2coc3ccc(C)cc3c2=O)CC1 | 0.785 |
| Cc1c(N2C(=O)CCC2=O)c(=O)n(-c2ccccc2)n1C | 0.575 |
| Cc1ccc2nc(-c3ccc([N+](=O)[O-])cc3)cn2c1 | 0.75 |
| CC(=O)c1cccc(NS(=O)(=O)c2ccc(Cl)cc2)c1 | 0.22 |
| CCOc1ccc2nc3cc(N)ccc3c(N)c2c1 | 0.84 |
| CN(N)c1nc(N2CCOCC2)nc(N2CCOCC2)n1 | 0.635 |

| SMILES | T3 sensor activation Q score |
| --- | --- |
| CC(=O)C1=C(O)C(=O)N(CCO)C1c1cccc(F)c1 (stereo not given) | 0.12 |
| Cc1ccccc1C(=O)NCCSC1CCCCC1 | 1.31 |
| O=C(CN1CCCC1)N1c2ccccc2C=Cc2ccccc21 | 0.495 |
| CCOc1ccccc1C(=O)n1cc(Cl)cn1 | 0.59 |
| CCN(CCN(C)C)Cc1ccc(Cl)c(Cl)c1 | 0.61 |
| Cc1cccc2oc(-c3cccc(NC(=O)c4ccccc4I)c3)nc12 | -0.48 |
| OCCSc1nc2ccccc2s1 | -0.745 |
| Cc1ccccc1C(=O)N(Cc1ccccc1)C(C)C | -0.155 |
| CN1CCC(O)(c2ccccc2)CC1 | 0 |
| COC(=O)NC(c1ccc(Br)cc1)C(Cl)(Cl)Cl (stereo not given) | -1.04 |
| CCOc1ccc2nc(C)sc2c1 | -0.465 |
| CC(=O)NC(CC(=O)c1ccc(Cl)cc1Cl)C(Cl)(Cl)Cl (stereo not given) | -0.345 |
| Cc1c(Cl)cccc1NC(=O)C(c1ccccc1)c1ccccc1 | 0.225 |
| Cc1c(NC(=O)c2cccc([N+](=O)[O-])c2)c(=O)n(-c2ccccc2)n1C | -0.4 |
| COc1ccccc1C(=O)Nc1cccc(Cl)c1C | -0.56 |
| NC(=O)C1CCCN(Cc2ccc(Cl)cc2)C1 (stereo not given) | -0.12 |
| CC(C)(C)c1ccc(-c2nc3cc(N)ccc3o2)cc1 | 0.225 |
| COc1cccc(Nc2nc(-c3ccccc3)cs2)c1 | -0.65 |
| Cc1ccccc1N1CCN(Cc2ccc(Br)o2)CC1 | 0.265 |
| CN(C)CCOC(c1ccccc1)c1ccc(Cl)cc1 (stereo not given) | 0.395 |

Of the compounds above, these contain four or more nitrogen atoms:

| SMILES | T3 sensor activation Q score |
| --- | --- |
| CN(N)c1nc(N2CCOCC2)nc(N2CCOCC2)n1 | 0.635 |
| Cc1c(NC(=O)c2cccc([N+](=O)[O-])c2)c(=O)n(-c2ccccc2)n1C | -0.4 |

Test system: ppGalNAc-T2 sensor
Assay: T2 sensor activation Q score (MG/GFP ratio z-score vs DMSO controls) (SD units); higher = more sensor activation (inhibition of ppGalNAc-T2 glycosylation)
Conditions: HEK293 sensor cells; 10 µM; 6 h
Experimental: as §1

| SMILES | T2 sensor activation Q score |
| --- | --- |
| CCCN(CCO)Cc1cccc(Cl)c1 | 0.695 |
| CN1C(=O)CC(N2CCN(c3ccc(Cl)cc3)CC2)C1=O (stereo not given) | -0.455 |
| CCCCc1ccc(-c2csc(N)c2C(N)=O)cc1 | -0.56 |
| COc1ccccc1N1CCN(C(=O)c2ccc(F)cc2)CC1 | -0.89 |
| COc1cccc(N2C(=O)CC(N3CCN(C)CC3)C2=O)c1 (stereo not given) | 0.285 |
| COc1ccc(S(=O)(=O)/C=C/c2ccccc2)cc1 | -1.2 |
| COc1ccc(NC(=O)C2CCCCC2C(=O)O)cc1 (stereo not given) | -0.125 |
| CC(=O)Nc1ccc(NC(=O)CCN2C(=O)c3ccccc3C2=O)cc1 | -0.425 |
| O=C(O)c1ccccc1C(=O)c1ccc(Cl)c(Cl)c1 | -0.675 |
| Cc1ccccc1NCC(=O)Nc1c(C)cccc1C | 1.04 |
| Cc1cccc(N(CC(=O)O)CC(=O)O)c1 | 0.775 |
| O=c1c2ccccc2nc2n1CCS2 | 0.425 |
| COc1ccc(Cl)cc1NC(=O)c1cccc(C)c1 | -0.685 |
| O=[N+]([O-])c1ccc(-c2cn3cc(Br)ccc3n2)cc1 | -0.43 |
| CCN1CCN(Cc2coc3ccc(C)cc3c2=O)CC1 | -0.16 |
| Cc1c(N2C(=O)CCC2=O)c(=O)n(-c2ccccc2)n1C | 2.1 |
| Cc1ccc2nc(-c3ccc([N+](=O)[O-])cc3)cn2c1 | -0.195 |
| CC(=O)c1cccc(NS(=O)(=O)c2ccc(Cl)cc2)c1 | 0.19 |
| CCOc1ccc2nc3cc(N)ccc3c(N)c2c1 | 2.27 |
| CN(N)c1nc(N2CCOCC2)nc(N2CCOCC2)n1 | 0.19 |

| SMILES | T2 sensor activation Q score |
| --- | --- |
| CC(=O)C1=C(O)C(=O)N(CCO)C1c1cccc(F)c1 (stereo not given) | -0.155 |
| Cc1ccccc1C(=O)NCCSC1CCCCC1 | 0.34 |
| O=C(CN1CCCC1)N1c2ccccc2C=Cc2ccccc21 | -0.28 |
| CCOc1ccccc1C(=O)n1cc(Cl)cn1 | -0.055 |
| CCN(CCN(C)C)Cc1ccc(Cl)c(Cl)c1 | 0.415 |
| Cc1cccc2oc(-c3cccc(NC(=O)c4ccccc4I)c3)nc12 | -0.905 |
| OCCSc1nc2ccccc2s1 | -1.23 |
| Cc1ccccc1C(=O)N(Cc1ccccc1)C(C)C | 1.23 |
| CN1CCC(O)(c2ccccc2)CC1 | 0.205 |
| COC(=O)NC(c1ccc(Br)cc1)C(Cl)(Cl)Cl (stereo not given) | -0.545 |
| CCOc1ccc2nc(C)sc2c1 | -1.17 |
| CC(=O)NC(CC(=O)c1ccc(Cl)cc1Cl)C(Cl)(Cl)Cl (stereo not given) | 0.35 |
| Cc1c(Cl)cccc1NC(=O)C(c1ccccc1)c1ccccc1 | 0.76 |
| Cc1c(NC(=O)c2cccc([N+](=O)[O-])c2)c(=O)n(-c2ccccc2)n1C | -0.55 |
| COc1ccccc1C(=O)Nc1cccc(Cl)c1C | -0.705 |
| NC(=O)C1CCCN(Cc2ccc(Cl)cc2)C1 (stereo not given) | 0.325 |
| CC(C)(C)c1ccc(-c2nc3cc(N)ccc3o2)cc1 | 0.715 |
| COc1cccc(Nc2nc(-c3ccccc3)cs2)c1 | -0.79 |
| Cc1ccccc1N1CCN(Cc2ccc(Br)o2)CC1 | 0.155 |
| CN(C)CCOC(c1ccccc1)c1ccc(Cl)cc1 (stereo not given) | 0.99 |

3 compounds out of the list, sorted by heavy-atom count, low to high.

| SMILES | T2 sensor activation Q score |
| --- | --- |
| CC(=O)NC(CC(=O)c1ccc(Cl)cc1Cl)C(Cl)(Cl)Cl (stereo not given) | 0.35 |
| COc1ccccc1N1CCN(C(=O)c2ccc(F)cc2)CC1 | -0.89 |
| CC(=O)Nc1ccc(NC(=O)CCN2C(=O)c3ccccc3C2=O)cc1 | -0.425 |
